One molecule from paper PMC6220267 can be followed below.

Amino acid sequences for entries named in this document (tags omitted). Residues count along the entry.
UniProt P05067, residues 672-713: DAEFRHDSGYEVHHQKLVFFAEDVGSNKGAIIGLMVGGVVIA

No constants are given. Whether binding was seen depends on the method and setting. In cells and extracts the contact can be indirect. Some results given as binding are weak or reduced against the parent protein; the word gives no strength. Sequences can lack the tags named with a protein.

The target in this assay is Aβ42 fibrils (fibrillar Aβ42) (UniProt P05067). In words: pull-down; Aβ42 fibril pull-down: conditioned media with 5 mM EDTA incubated with Aβ42 fibrils 1 h at room temperature, fibrils pelleted at 18,000 g, washed with PBS; Western blot with V5 antibody; only the target purified. In general terms: Immunoblotting shows a protein as a band on a membrane.

B1: soluble TREML1‐Fc (human, soluble ectodomain) (Fc fusion, UniProt Q86YW5 16-162)
chain: QGIVGSLPEVLQAPVGSSILVQCHYRLQDVKAQKVWCRFLPEGCQPLVSSAVDRRAPAGRRTFLTDLGGGLLQVEMVTLQEEDAGEYGCMVDGARGPQILHRVSLNILPPEEEEETHKIGSLAENAFSDPAGSANPLEPSQDEKSIP
As to B1, the binding result is listed as “binds”.
